Test results taken from publication PMC7819943, “Rice protein-binding microarrays: a tool to detect cis-acting elements near promoter regions in rice”.
The list shows a part of the results.

biological target: T1, OsSMF1 (Oryza sativa, UniProt Q6ZLB0 1-436); assay: protein-binding microarray (RPBM); PBS, 2% BSA, 51.3 ng/ul salmon testes DNA, 50 uM zinc acetate, 200 nM TF, 25 C, 1 h; high values mean tight binding; settings: protein: recombinant; tags: N-terminal polyhistidine and DsRed monomer fusion (pET32a); chain copies: 2; label: CyDye5-dUTP incorporated in the synthesized complementary strand; 3' TTTTT single-stranded linker to array surface; dsDNA, one strand shown
T1 sequence: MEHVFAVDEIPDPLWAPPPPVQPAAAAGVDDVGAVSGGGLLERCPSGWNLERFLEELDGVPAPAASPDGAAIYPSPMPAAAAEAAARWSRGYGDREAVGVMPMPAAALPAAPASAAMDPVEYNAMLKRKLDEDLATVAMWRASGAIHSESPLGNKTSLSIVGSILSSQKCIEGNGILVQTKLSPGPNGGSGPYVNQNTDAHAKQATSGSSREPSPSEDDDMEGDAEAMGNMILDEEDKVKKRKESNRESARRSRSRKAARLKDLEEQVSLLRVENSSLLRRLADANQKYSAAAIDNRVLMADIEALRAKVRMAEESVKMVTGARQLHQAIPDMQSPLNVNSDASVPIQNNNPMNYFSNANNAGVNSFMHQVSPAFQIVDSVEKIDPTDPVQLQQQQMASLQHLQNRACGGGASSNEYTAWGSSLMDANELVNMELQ
In short: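 Binding signal is reported as fluorescence intensity per feature (arbitrary units) from an Axon 4000B scanner. Incubation used 200 nM of each Ni–NTA-purified, N-terminally polyhistidine- and DsRed-fused transcription factor from E. coli BL21-CodonPlus on a double-stranded custom Agilent array for 1 h at 25 °C, with 50 µM zinc acetate in the buffer, followed by washing.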

Sequence	binding signal
GTTCATTAGCGCGTGATTAATTAAGTTTTAGTTATTTTCTCGGAGTCACCTAGTGCAG	25200 fluorescence intensity (a.u.)
GCCGCGCCGCGCCGTGGCGTGGCGTGGCGTGGCGCGGCCACGGAGTCACCTAGTGCAG	6530 fluorescence intensity (a.u.)
TTGTCGAGCTCGTGCATCACATGTGGCTCGTAAACGCGCCCGGAGTCACCTAGTGCAG	3930 fluorescence intensity (a.u.)
ACTTTATGACACACTGTGGTGTCAAAAGGCCCCTAAATTGCGGAGTCACCTAGTGCAG	3220 fluorescence intensity (a.u.)
CTCAATTATTGTTTCATTGAGCATTGTTTCCTACCATACACGGAGTCACCTAGTGCAG	3700 fluorescence intensity (a.u.)
TCTAAACTACAAGATGATAATAATTATTTTCTTAGTCTTTCGGAGTCACCTAGTGCAG	8830 fluorescence intensity (a.u.)
TGTACGGATCGTACCTGACTCGTACCTAGCCAGCAGATTTCGGAGTCACCTAGTGCAG	3500 fluorescence intensity (a.u.)
CGCGAGGCGACACGCGTGGGCGGGACGTGGCCGCGCGTCGCGGAGTCACCTAGTGCAG	6280 fluorescence intensity (a.u.)
CAGCTATATATAGCTGGAGAAGGAGAGGGTGACATCAGCGCGGAGTCACCTAGTGCAG	7160 fluorescence intensity (a.u.)
GTTTCGTTGCGAAATCGTCTGTGTTGCGTAAGCAAACCACCGGAGTCACCTAGTGCAG	4040 fluorescence intensity (a.u.)
CCGTAGCCACGTACGTAGTTCACACCGGCCCAGTCCGTTGCGGAGTCACCTAGTGCAG	4820 fluorescence intensity (a.u.)
AAGCTGCGACGCCACTCGAGGGCACGACACAAGCTGACGTCGGAGTCACCTAGTGCAG	4200 fluorescence intensity (a.u.)
CCCATCCTGGGCCACACATGACATGTCGGAGAGAAGGGAGCGGAGTCACCTAGTGCAG	3500 fluorescence intensity (a.u.)
CAAACGTGTTAAGGATCCACGTTGCGGCCCATAAAGGCCCCGGAGTCACCTAGTGCAG	4750 fluorescence intensity (a.u.)
GAAAGGAAGAGGTGGAGGAAGTGAGACCCACTGACTTGTGCGGAGTCACCTAGTGCAG	24500 fluorescence intensity (a.u.)
CGAAACCATAGCTGTACTTATTTTGGAACGGAGGAATTAGCGGAGTCACCTAGTGCAG	4050 fluorescence intensity (a.u.)
CGACGGAACGGGCGCTACATCCACGTGGCGTGCCACGTAGCGGAGTCACCTAGTGCAG	12800 fluorescence intensity (a.u.)
GCGACTCGGCGTTATCCGCAACACGTGGAGCAAGACGGCCCGGAGTCACCTAGTGCAG	3980 fluorescence intensity (a.u.)
TGCTCGCTCTGGACGCGTCGCCGCGCCCGCTCGGCTTCTTCGGAGTCACCTAGTGCAG	3920 fluorescence intensity (a.u.)
AGCTTCACGCATGAGTACACGTGCAAAATGAAGCAGCCCCCGGAGTCACCTAGTGCAG	4290 fluorescence intensity (a.u.)
AAAGTTCGATAACATTTCATGGATTAGAGTACTCATCGATCGGAGTCACCTAGTGCAG	3640 fluorescence intensity (a.u.)
CCAAAACCTTGTTTGATTGTGATCTTGCCTACGTGGCATACGGAGTCACCTAGTGCAG	25600 fluorescence intensity (a.u.)
AGTACTGTGTGAGCGGTGAGGTGGCGGCGGCTGGTGGATCCGGAGTCACCTAGTGCAG	4640 fluorescence intensity (a.u.)
CATGGTGCTTACGTGATTATGTTGACCTAGATTTTATTCCCGGAGTCACCTAGTGCAG	4540 fluorescence intensity (a.u.)
TGGTTTTATTCGTCTAGCCCAATCTGACCGTGACCTATTCCGGAGTCACCTAGTGCAG	3300 fluorescence intensity (a.u.)
ATGGAGAAATCCTCAAATATAAGTTTGTATACCCACGTGTCGGAGTCACCTAGTGCAG	7290 fluorescence intensity (a.u.)
CTAAGGTAGACATTGGGACAACTCCCATCTCACACTATTTCGGAGTCACCTAGTGCAG	18200 fluorescence intensity (a.u.)

Sequence	binding signal
CGCGGATCGGCGCGCCACGTGTACGGCCATGATTCATCTCCGGAGTCACCTAGTGCAG	11400 fluorescence intensity (a.u.)
CACCCGCCATCGTGGCGGACATTCCAGTATAGGTACGGCACGGAGTCACCTAGTGCAG	6150 fluorescence intensity (a.u.)
TTTCTGAAACTGATGCGTCAGCTCCATCATATCACGAAGACGGAGTCACCTAGTGCAG	6880 fluorescence intensity (a.u.)
CACCTTCTTCAAGCTCCCTCCTCTGAAGCCTCTTCTTCTTCGGAGTCACCTAGTGCAG	34900 fluorescence intensity (a.u.)
ACAGCCACTGTGTTGTGCGCACGTGTAGCACGCGCTGGACCGGAGTCACCTAGTGCAG	4900 fluorescence intensity (a.u.)
AAGCCCCGTGCGTATGTTCACGGCGTGGCAGTAATGTAGCCGGAGTCACCTAGTGCAG	31500 fluorescence intensity (a.u.)
CAATTCTGAGTTCTGACGGAAATTGCCCTTATCATTTTCGCGGAGTCACCTAGTGCAG	3820 fluorescence intensity (a.u.)
GTCAAAATTTGTAGTACTAAGATACGTCATATGCATCTAACGGAGTCACCTAGTGCAG	6620 fluorescence intensity (a.u.)
CACAATAATTACTACTCCCTCCGTCCCAGAATATACTAATCGGAGTCACCTAGTGCAG	18500 fluorescence intensity (a.u.)
AATGTCACGCCTCCATGTGTCCACGTAGCTTATTATGCAGCGGAGTCACCTAGTGCAG	6800 fluorescence intensity (a.u.)
ATTTGGAAGAATTGTTGACTTGGTTTGATAGTTTCTCATACGGAGTCACCTAGTGCAG	34900 fluorescence intensity (a.u.)
TCGAATGTTGGAAATAAACACGTCATGGTGTATTCCTGGCCGGAGTCACCTAGTGCAG	18300 fluorescence intensity (a.u.)
GCGGCAGCGACGGCGGCGGCGGCTAGTGACGGTGGCGGATCGGAGTCACCTAGTGCAG	3340 fluorescence intensity (a.u.)
AAATTTGCCACCCGGCTACACGCGCGGCCCAAGGTTGTGGCGGAGTCACCTAGTGCAG	3200 fluorescence intensity (a.u.)
TAGTAGACTAGCAGGAGTCCACATCGTCCCATCAACGCTGCGGAGTCACCTAGTGCAG	3190 fluorescence intensity (a.u.)
CTAGTGTGTGTCCTCTCACTTCTTACTCTCCGTGTATTTTCGGAGTCACCTAGTGCAG	3310 fluorescence intensity (a.u.)
TCCCTGATATGTAAGTCCCACAAGCTGACTCAGCTAGAGTCGGAGTCACCTAGTGCAG	11000 fluorescence intensity (a.u.)
GGCAATCATCTTGAAGCATATCAACCCAACCTGATGTTGTCGGAGTCACCTAGTGCAG	28100 fluorescence intensity (a.u.)
TATTAGGTTTGTGGTATCCATAACCCTGACACATCCCTTCCGGAGTCACCTAGTGCAG	4110 fluorescence intensity (a.u.)
TTTTCGCCCTTTACAGTCTTCGTCTTCGCTACTCGGTGGGCGGAGTCACCTAGTGCAG	19300 fluorescence intensity (a.u.)
GATTCGTTGAATACCGTCATTATTGGTGGGTTATCATCATCGGAGTCACCTAGTGCAG	3490 fluorescence intensity (a.u.)
CCGTCCGATCGGATCGGACGGTAGAAACGGCACGTGGCTCCGGAGTCACCTAGTGCAG	5290 fluorescence intensity (a.u.)
TGGCGCCAGCCCTTAAGATTTGGGGAGGAGGGGTGGAACGCGGAGTCACCTAGTGCAG	3440 fluorescence intensity (a.u.)
GAATGCAAACAATGGTGGTGACTTTATCAGGGATGATAATCGGAGTCACCTAGTGCAG	4090 fluorescence intensity (a.u.)
TAGTGTTTGTTTTGGGTTGTGCTCAGCTTAGCTCTGGTGTCGGAGTCACCTAGTGCAG	39800 fluorescence intensity (a.u.)
ACACCATGAACACGTAGGTACATTTGCGTTCTGTATATATCGGAGTCACCTAGTGCAG	6180 fluorescence intensity (a.u.)
ATGAGATTTTGAGTCATACATTATGACTTAAAATTCAATTCGGAGTCACCTAGTGCAG	3280 fluorescence intensity (a.u.)

Single values from the list:
binding signal with ACAGCCACTGTGTTGTGCGCACGTGTAGCACGCGCTGGACCGGAGTCACCTAGTGCAG reads 4900 fluorescence intensity (a.u.)
binding signal with TGGCGCCAGCCCTTAAGATTTGGGGAGGAGGGGTGGAACGCGGAGTCACCTAGTGCAG reads 3440 fluorescence intensity (a.u.)
binding signal with GTCAAAATTTGTAGTACTAAGATACGTCATATGCATCTAACGGAGTCACCTAGTGCAG reads 6620 fluorescence intensity (a.u.)
binding signal with CTAGTGTGTGTCCTCTCACTTCTTACTCTCCGTGTATTTTCGGAGTCACCTAGTGCAG reads 3310 fluorescence intensity (a.u.)
